PubChem BioAssay AID1259308, NCATS, 2017
Here is an unselected part of about 59,000 reagents. About 1,510 of all reagents (2.6%) were called active. 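Calls use total luciferase alone and ignore viability, so some active siRNAs may act by altering cell number.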 The numbers tell different reagents against one gene apart. Not all columns of the deposit are shown. No sequences are given here.

- Purpose: 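Knock-downs that increase output of a recombinant reporter protein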 (primary screen)
- Cell system: human HEK293 embryonic kidney cells stably expressing firefly luciferase (HEK-CMV-Luc2-Hygro)
- Knock-down reagent: single siRNA against human genes, 0.8 pmol siRNA per well
- Duration: 72 h
- Measured: 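Reporter luminescence and viable-cell signal on separate replicate plates, given as percent of non-targeting control and median/MAD z-scores, plus per-cell luciferase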
- Direction: total luciferase, z-score and total luciferase, % of control: higher = more reporter protein produced; luciferase per cell, z-score: higher = more reporter output per viable cell
- Rule for the call: 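Active when the median/MAD z-score for overall luciferase is greater than 3; a gene was taken forward for validation with new siRNAs if at least two of its three siRNAs passed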
- Meaning of the calls: active = raised luciferase; inactive = no rise

gene | reagent | total luciferase, z-score | total luciferase, % of control | luciferase per cell, z-score | Outcome
HNRNPCP2 | 1 | 1.04 | 103 | 1.09 | inactive
HNRNPCP2 | 2 | 3.08 | 143 | 3.35 | active
HNRNPCP2 | 3 | 0.462 | 91.1 | 0.00703 | inactive
ZNF697 | 1 | 0.0392 | 82.7 | 0.0905 | inactive
ZNF697 | 2 | 0.401 | 89.9 | 0.33 | inactive
ZNF697 | 3 | 1.16 | 105 | 0.468 | inactive
MIR34BHG | 1 | -0.383 | 74.3 | 0.44 | inactive
MIR34BHG | 2 | 0.226 | 86.4 | -0.0111 | inactive
MIR34BHG | 3 | 1.22 | 106 | 0.562 | inactive
PNLIPRP1 | 1 | 0.809 | 98 | 0.587 | inactive
PNLIPRP1 | 2 | 0.203 | 85.9 | 1.37 | inactive
PNLIPRP1 | 3 | 0.942 | 101 | 0.675 | inactive
NAALADL1 | 1 | 3.19 | 145 | 2.74 | active
NAALADL1 | 2 | 0.125 | 84.4 | -0.424 | inactive
NAALADL1 | 3 | 2.3 | 128 | 1.21 | inactive
RNF139 | 1 | 0.439 | 90.6 | 0.0923 | inactive
RNF139 | 2 | -0.445 | 73 | -0.691 | inactive
RNF139 | 3 | -0.78 | 66.4 | 0.0376 | inactive
GABARAPL1 | 1 | -0.181 | 78.3 | -0.238 | inactive
GABARAPL1 | 2 | 1.94 | 120 | 1.91 | inactive
GABARAPL1 | 3 | 2.1 | 124 | 2.29 | inactive

6 of these entries, set out differently:
RNF139 #1: total luciferase, z-score = 0.439; total luciferase, % of control = 90.6; luciferase per cell, z-score = 0.0923; Outcome = inactive
RNF139 #2: total luciferase, z-score = -0.445; total luciferase, % of control = 73; luciferase per cell, z-score = -0.691; Outcome = inactive
RNF139 #3: total luciferase, z-score = -0.78; total luciferase, % of control = 66.4; luciferase per cell, z-score = 0.0376; Outcome = inactive
GABARAPL1 #1: total luciferase, z-score = -0.181; total luciferase, % of control = 78.3; luciferase per cell, z-score = -0.238; Outcome = inactive
GABARAPL1 #2: total luciferase, z-score = 1.94; total luciferase, % of control = 120; luciferase per cell, z-score = 1.91; Outcome = inactive
GABARAPL1 #3: total luciferase, z-score = 2.1; total luciferase, % of control = 124; luciferase per cell, z-score = 2.29; Outcome = inactive

More results follow.
gene | reagent | total luciferase, z-score | total luciferase, % of control | luciferase per cell, z-score | Outcome
SLC38A3 | 1 | 1.09 | 104 | 1.05 | inactive
SLC38A3 | 2 | -0.0838 | 80.2 | -0.0288 | inactive
SLC38A3 | 3 | 0.0301 | 82.5 | -0.44 | inactive
HBM | 1 | -0.321 | 75.5 | -0.206 | inactive
HBM | 2 | -0.649 | 69 | -0.564 | inactive
HBM | 3 | 0.179 | 85.4 | 1.4 | inactive
DIPK1A | 1 | 2.6 | 134 | 3.11 | inactive
DIPK1A | 2 | 2.26 | 127 | 1.88 | inactive
DIPK1A | 3 | -0.106 | 79.8 | -0.172 | inactive
MAP1B | 1 | 0.663 | 95.1 | 0.257 | inactive
MAP1B | 2 | -0.305 | 75.8 | -0.849 | inactive
MAP1B | 3 | -0.134 | 79.2 | -0.361 | inactive
EDARADD | 1 | -1.6 | 50 | -2.03 | inactive
EDARADD | 2 | -1.06 | 60.8 | -0.61 | inactive
EDARADD | 3 | -0.108 | 79.7 | 0.712 | inactive
PPP1R27 | 1 | -1.75 | 47 | 0.261 | inactive
PPP1R27 | 2 | 0.948 | 101 | 0.238 | inactive
PPP1R27 | 3 | 0.418 | 90.2 | -0.074 | inactive
KLHL25 | 1 | 1.86 | 119 | 2.39 | inactive
KLHL25 | 2 | -0.153 | 78.8 | 0.509 | inactive
KLHL25 | 3 | 0.399 | 89.8 | 1.06 | inactive
LINC00602 | 1 | -0.616 | 69.6 | -0.853 | inactive
LINC00602 | 2 | 0.819 | 98.2 | 0.255 | inactive
LINC00602 | 3 | 0.751 | 96.8 | 0.196 | inactive
TAF8 | 1 | 0.516 | 92.1 | 0.23 | inactive
TAF8 | 2 | 0.896 | 99.7 | 1.56 | inactive
TAF8 | 3 | 0.973 | 101 | 0.713 | inactive
COG5 | 1 | -1.59 | 50.2 | -1.92 | inactive
COG5 | 2 | -1.12 | 59.6 | -0.914 | inactive
COG5 | 3 | -0.636 | 69.2 | -0.653 | inactive
TMPRSS11GP | 1 | 0.262 | 87.1 | 0.165 | inactive
TMPRSS11GP | 2 | 1.11 | 104 | 0.7 | inactive
TMPRSS11GP | 3 | 1.24 | 106 | 0.528 | inactive
P4HA2 | 1 | 2.82 | 138 | 1.69 | inactive
P4HA2 | 2 | 2.35 | 129 | 2.13 | inactive
P4HA2 | 3 | 0.657 | 95 | 0.324 | inactive
